# Test results: publication PMC6704583
# Protein sequences, listed by entry. Tags and fused reporters are not part of them.
# UniProt Q15717: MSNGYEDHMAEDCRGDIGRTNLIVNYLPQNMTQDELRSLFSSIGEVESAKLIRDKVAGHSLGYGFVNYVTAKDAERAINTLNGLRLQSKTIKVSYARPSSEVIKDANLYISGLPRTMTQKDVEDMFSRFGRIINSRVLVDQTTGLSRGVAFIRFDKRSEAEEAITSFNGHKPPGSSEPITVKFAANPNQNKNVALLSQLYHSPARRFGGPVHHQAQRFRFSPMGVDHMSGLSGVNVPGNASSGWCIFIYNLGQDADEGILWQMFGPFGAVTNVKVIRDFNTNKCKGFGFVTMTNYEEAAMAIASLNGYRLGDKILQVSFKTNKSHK
# These are yes or no findings as the source states them, for the method shown. In cells and extracts the contact can be indirect.
# Molecular target: T1, Wilms tumor 1-associated protein (WTAP) (human (endogenous in Huh7)) (UniProt Q15007)
# T1 sequence: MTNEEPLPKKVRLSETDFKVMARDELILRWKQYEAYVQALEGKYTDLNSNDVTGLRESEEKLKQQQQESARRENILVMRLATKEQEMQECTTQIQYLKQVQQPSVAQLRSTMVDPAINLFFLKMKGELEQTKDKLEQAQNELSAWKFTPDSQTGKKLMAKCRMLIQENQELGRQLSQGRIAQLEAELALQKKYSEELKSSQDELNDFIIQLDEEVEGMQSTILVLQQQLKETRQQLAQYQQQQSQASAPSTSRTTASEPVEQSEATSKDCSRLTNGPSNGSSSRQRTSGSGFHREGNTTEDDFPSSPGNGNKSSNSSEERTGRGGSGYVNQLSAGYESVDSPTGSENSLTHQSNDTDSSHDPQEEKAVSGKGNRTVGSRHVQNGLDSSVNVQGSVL
# Assay: co-IP; Huh7 cells; Dynabeads Co-Immunoprecipitation Kit; protein extracted with IP Lysis Buffer put on beads premixed with antibodies of WTAP or IgG; partners of WTAP identified by immunoblots
substance,measurement,value
Hu-Antigen R (HuR) (from UniProt Q15717 1-326),binding,no binding
